No constants are given. Whether binding was seen depends on the method and setting. Some entries that bind do so weakly or less than the wild type.

This passage reports binding results from patent US20220259315A1.

The experiment concerns the target PD-1 M17. The experiment can be described thus: flow cytometry, HeLa cells transiently transfected with PD-1 M17 [M17]. For orientation: A flow cytometer gives signals particle by particle.

B1: 137F2 (antibody, V domains shown)
VH: QVQLQQPGAELVRPGTSVKMSCKAAGYTFTNYWIGWIKQRPGHGLEWIGDIYPGGGYTNYNEKFKGKATLTADTSSSTAYMQVSSLTSEDTGIYYCARGYDFVLDRWGQGTSVTVSS
VL: DIVMSQSPSSLAVSTGEKVTMTCKSSQSLFNSETQKNYLAWYQQKPGQPPKLLIFWASTRESGVPDRFLGSGSGTDFTLTISSVQAEDLAVYYCKQSYTLRTFGGGTKLEIK
As to B1, the binding result is “binds”.
